Structures can show the parent of a compound that is named as a salt. The list shows a part of the results. Repeats in this data set agree poorly, so a single value says little.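 In a drug-repurposing library screen, luminescence reads luciferase driven by eight TEAD-binding elements, stably integrated into human kidney-derived cells. Compounds scoring over five robust Z scores above the plate mean are called hits.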
Test system: HEK293A TEAD-LUC reporter
Assay: TEAD-luciferase reporter activity (YAP activation), robust Z score vs plate; higher = stronger YAP/TEAD activation
Conditions: 24 h

| SMILES | TEAD-luciferase reporter activity (compound concentration: 200 nM) | TEAD-luciferase reporter activity (compound concentration: 2 uM) | TEAD-luciferase reporter activity (compound concentration: 10 uM) |
| --- | --- | --- | --- |
| CCCCNC(=N)NC(=N)N | inactive: -1.99 | inactive: -1.38 | active: 7.2 |
| O=C1C(=O)C(O)C(=O)C(O)C1=O (configuration not stated) | inactive: -2.19 | inactive: 0.348 | inactive: 4.38 |
| CCCCOC(=O)NC(CNC(=O)CC1CC(c2ccc(C(=N)N)cc2)=NO1)C(=O)OC (configuration not stated) | inactive: -2.28 | inactive: -0.561 | inactive: -0.528 |
| CC1(C)[C@H]2CC[C@]1(CS(=O)(=O)N(C1CCCCC1)C1CCCCC1)[C@@H](O)C2 | inactive: -0.868 | inactive: 2.78 | inactive: 4.62 |
| Nc1ncn([C@@H]2O[C@H](CO)[C@@H](O)[C@H]2O)c(=O)n1 [5-Azacytidine] | inactive: 4.41 | active: 8.51 | inactive: -0.863 |
| [O-][n+]1cccc2c1Nc1ccc(F)cc1C2(OCC1CC1)C(F)(F)F (configuration not stated) | inactive: -0.952 | inactive: 0.282 | inactive: 3.19 |
| CC(C)COc1ccc(CNC(=O)NCCCCN2CCCC(C)C2)cc1 (configuration not stated) | inactive: -1.19 | inactive: 0.395 | inactive: 0.673 |
| CC(=O)Nc1ccc(OC(=O)/C=C(C)/C=C/C=C(C)/C=C/C2=C(C)CCCC2(C)C)cc1 | inactive: 1.76 | inactive: -0.876 | inactive: -0.969 |
| N[C@@H](CCC(=O)N[C@@H](Cc1ccc(O)c(O)c1)C(=O)O)C(=O)O [Gludopa] | inactive: 0.171 | inactive: 0.362 | inactive: 1.2 |
| O=C1C[C@@H]2CCN(C(=O)Cc3ccccc3)C[C@@H]2CCN1 | inactive: 0.243 |  | inactive: 2.7 |
| O=C(Nc1ccc(C(=O)N2C[C@H]3CCCN3Cc3ccccc32)cc1)c1ccccc1-c1ccccc1 | inactive: -0.447 | inactive: -1.05 | inactive: 2.07 |
| O=c1[nH]c2cc3cc(OCCCCNC4CCCCC4)ccc3nc2[nH]1 | inactive: -0.54 | inactive: -1.59 | inactive: -1.29 |
| NC(=O)c1noc([C@H](CCCC2CCCCC2)CC(=O)NO)n1 | inactive: -0.172 | inactive: 0.347 | inactive: -0.892 |
| CCn1nnc([C@H]2O[C@@H](n3cnc4c(N)nc(NC(CO)Cc5ccccc5)nc43)[C@H](O)[C@@H]2O)n1 (some centres not stated) | inactive: -1.97 | inactive: -0.507 | inactive: 0.0865 |
| COc1cc(/C=N/NC(=O)c2ccncc2)ccc1O | inactive: -0.866 | inactive: -0.61 | inactive: -1.6 |
| CC(Cc1cccc(C(F)(F)F)c1)NCCOC(=O)c1ccccc1 (configuration not stated) [benfluorex] | inactive: -0.277 | inactive: 0.453 | inactive: 0.245 |
| CC(=O)N(CC(O)CO)c1c(I)c(C(=O)NCC(O)CO)c(I)c(C(=O)NCC(O)CO)c1I (configuration not stated) [iohexol] | inactive: -1.3 | inactive: -0.833 | inactive: 0.725 |
| Clc1ccc(Oc2cccc(-c3nc4ccccc4n3CCN3CCCCC3)c2)cc1Cl | inactive: 0.505 | inactive: -0.355 | inactive: -1.5 |
| Cc1c[nH]c2ncnc(N3CCC(CN)(C(=O)Nc4cccc(OC(=O)N(C)C)c4)CC3)c12 | inactive: 0.551 | inactive: 0.993 | inactive: 1.28 |

| SMILES | TEAD-luciferase reporter activity (compound concentration: 200 nM) | TEAD-luciferase reporter activity (compound concentration: 2 uM) | TEAD-luciferase reporter activity (compound concentration: 10 uM) |
| --- | --- | --- | --- |
| COc1cc(C(C)C)c2c(c1)S(=O)(=O)N(COC(=O)c1c(Cl)ccc(OCCN3CCOCC3)c1Cl)C2=O | inactive: 1.45 | inactive: -1.01 | inactive: -1.5 |
| Cc1nc(=O)c2c([nH]1)CCSC2 | inactive: 2.69 | inactive: -1.55 | inactive: 0.344 |
| CC1(C)O[C@@H]2C[C@H]3[C@@H]4C[C@H](F)C5=CC(=O)C=CC5(C)[C@H]4[C@@H](O)CC3(C)C2(C(=O)CO)O1 (some centres not stated) [Flunisolide] | inactive: 1.49 | inactive: -1.13 | inactive: 1.81 |
| [Cl][Zn][Cl] [Zinc Chloride] | inactive: 2.23 |  | inactive: 0.352 |
| CN(C)CCOc1ccccc1-c1nc(-c2ccccc2)no1 [irampanel hydrochloride] | inactive: -1.06 | inactive: -1.33 | inactive: 0.842 |
| Cc1cc(Nc2ncnc3ccc(NC4=NC(C)(C)CO4)cc23)ccc1Oc1ccn2ncnc2c1 [Irbinitinib] | inactive: -1.94 | inactive: -1.49 | inactive: 1.18 |
| COC1=CC(c2cc3ccccc3[nH]2)=N/C1=C\c1[nH]c(C)cc1C [obatoclax] | inactive: -0.646 | inactive: -1.88 | inactive: 0.0919 |
| CCCN1CCC(c2cccc(S(C)(=O)=O)c2)CC1 [pridopidine] | inactive: -3.15 | inactive: -0.886 | inactive: 1.64 |
| COc1ccc(NC(=O)CCC(=O)NCCc2ccccc2)cc1 | inactive: -1.31 | inactive: -1.76 | inactive: 2.82 |
| CNCCC(Oc1cccc2c1OCO2)c1cccs1 (configuration not stated) [Ammuxetine] | inactive: 1.51 | inactive: -0.206 | inactive: -0.678 |
| O=C(O)CC[C@@H](NC(=O)c1cc(Cl)cc(Cl)c1)C(=O)N1CCC2(CCCC2)CC1 | inactive: -0.745 | inactive: -0.0805 | inactive: -0.993 |
| CCOC(=O)C(=O)Nc1cc(C)c(Oc2ccc(O)c(C(O)c3ccc(F)cc3)c2)c(C)c1 (configuration not stated) [Axitirome] | inactive: -1.63 | inactive: 0.436 | inactive: 0.782 |
| COc1ccc([C@@H]2Sc3c(ccc4ccccc34)N(CCN(C)C)C(=O)[C@@H]2OC(C)=O)cc1 | inactive: -2.79 | inactive: -0.204 | inactive: -1.17 |
| CCOC(=O)Cc1ccc(-c2ccccc2)cc1 | inactive: 0.00863 | inactive: -1.29 | inactive: -0.605 |
| COc1ccc(/C=C/NC=O)cc1 [(E)-N-(4-methoxystyryl)formamide] | inactive: -0.248 | inactive: 0.782 | inactive: 0.718 |
| CCCCC[C@H](O)/C=C/[C@H]1CCC(=O)[C@@H]1CCCCCCC(=O)O | inactive: -0.947 | inactive: 2.3 | inactive: -1.19 |
| CC(=O)Oc1ccccc1C(=O)SCCC(=O)NCC(=O)O | inactive: -0.0892 | inactive: 0.623 | inactive: -0.704 |
| O=C(c1ccc(/C=C/c2n[nH]c3ccccc23)cc1)N1CCNCC1 | inactive: 2.18 | inactive: 3.96 | active: 5.27 |
| CCC(C(=O)OCCN1CCOC(c2ccccc2)C1C)c1ccccc1 (configuration not stated) | inactive: -0.833 | inactive: 0.778 | inactive: 0.682 |

| SMILES | TEAD-luciferase reporter activity (compound concentration: 200 nM) | TEAD-luciferase reporter activity (compound concentration: 2 uM) | TEAD-luciferase reporter activity (compound concentration: 10 uM) |
| --- | --- | --- | --- |
| CO[C@H]1C[C@@H]2CC[C@@H](C)[C@@](O)(O2)C(=O)C(=O)N2CCCC[C@H]2C(=O)O[C@H]([C@H](C)C[C@@H]2CC[C@H](n3cnnn3)[C@H](OC)C2)CC(=O)[C@H](C)/C=C(\C)[C@@H](O)[C@@H](OC)C(=O)[C@H](C)C[C@H](C)/C=C/C=C/C=C/1C [Zotarolimus] | active: 5.96 | inactive: -0.543 | inactive: 4.95 |
| NC(N)=Nc1nc(CSCC/C(N)=N/S(N)(=O)=O)cs1 [famotidine] |  | inactive: -0.221 |  |
| NC(N)=Nc1nc(CSCC/C(N)=N/S(N)(=O)=O)cs1 [Famotidine] | inactive: -2.04 |  | inactive: 2.74 |
| COc1cc(C)ccc1OCC(=O)N1CCC(C)Sc2ccccc21 (configuration not stated) | inactive: -1.21 | inactive: -1.11 | inactive: 0.883 |
| CN1C(C(=O)Nc2ccccn2)=C(O)c2sccc2S1(=O)=O [Tenoxicam] | inactive: 0.572 | inactive: -0.682 | inactive: 2.88 |
| CC(C)(C)C1CCC(CC2=C(O)C(=O)c3ccccc3C2=O)CC1 (configuration not stated) [Buparvaquone] | inactive: -0.686 | inactive: -0.569 | inactive: -0.247 |
| O=C1N=C(N2CCOCC2)CN1c1ccc(Cl)cc1 | inactive: -0.428 | inactive: 3.58 | inactive: -1.53 |
| COc1ccc(CC(=O)N2CCC(C(=O)N3CCC(N4CCCC4=O)CC3)CC2)cc1 | inactive: -0.45 |  | inactive: 0.169 |
| C[C@H](C(=O)N1Cc2ccccc2CC2(CCCN2C)C1)c1ccccc1 (some centres not stated) | inactive: -2.51 |  | inactive: 4.71 |
| C[C@H](O)C(=O)N1CCC(CCn2c(Sc3cc4c(cc3Br)OCO4)nc3c(N)ncnc32)CC1 | inactive: -1.48 | inactive: -0.193 | inactive: -0.491 |
| CCC[C@H](N)C(=O)NC1CCN(c2c(F)cc3c(=O)c(C(=O)O)cn4c3c2Oc2ccccc2-4)C1 (some centres not stated) | inactive: -0.101 | inactive: 1.97 | inactive: -1.28 |
| CN(CCc1ccccc1)C(=O)Cc1cc(C(=O)O)cc2c(OCc3ccccc3)cccc12 | inactive: -0.624 | inactive: -0.198 | inactive: -0.801 |
| O=C1NC(=O)C(Cc2ccc3c(c2)CCC(Cc2ccccc2)O3)S1 (configuration not stated) [Englitazone] | inactive: -0.271 | inactive: -0.664 | inactive: -0.522 |
| CC1OC1P(=O)([O-])[O-] (configuration not stated) [fosfomycin disodium] |  | inactive: -0.415 |  |
| CC1OC1P(=O)([O-])[O-] (configuration not stated) [Phosphomycin disodium] | inactive: 0.45 |  | inactive: 1.97 |
| O=C(Nc1ccc(F)cc1)C1CN(C2CCCCC2)C(=O)N1 (configuration not stated) | inactive: 0.113 |  | inactive: 0.142 |
| COc1ccc(C(=O)N2CCc3c([nH]c4ccccc34)C2c2ccc(Cl)cc2)cc1 (configuration not stated) | inactive: -1.03 | inactive: -0.677 | inactive: -0.466 |
| COC(=O)N1CCC(CN2CCC(CNC(=O)c3cccc4[nH]c(C(C)C)nc34)CC2)CC1 | inactive: 1.36 | inactive: 0.549 | inactive: 2.08 |

Five entries from above in another layout.
SMILES,TEAD-luciferase reporter activity (compound concentration: 200 nM),TEAD-luciferase reporter activity (compound concentration: 2 uM),TEAD-luciferase reporter activity (compound concentration: 10 uM)
COc1cc(C)ccc1OCC(=O)N1CCC(C)Sc2ccccc21 (configuration not stated),inactive: -1.21,inactive: -1.11,inactive: 0.883
CN1C(C(=O)Nc2ccccn2)=C(O)c2sccc2S1(=O)=O [Tenoxicam],inactive: 0.572,inactive: -0.682,inactive: 2.88
CC(C)(C)C1CCC(CC2=C(O)C(=O)c3ccccc3C2=O)CC1 (configuration not stated) [Buparvaquone],inactive: -0.686,inactive: -0.569,inactive: -0.247
O=C1N=C(N2CCOCC2)CN1c1ccc(Cl)cc1,inactive: -0.428,inactive: 3.58,inactive: -1.53
COc1ccc(CC(=O)N2CCC(C(=O)N3CCC(N4CCCC4=O)CC3)CC2)cc1,inactive: -0.45,,inactive: 0.169

— the supplement of paper PMC10735217
